Taken from: PubChem BioAssay AID504774 (Drosophila RNAi Screening Center, 2011)

Assay: 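Genes required for cells to withstand methyl methanesulphonate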 (primary screen)
Cells: Drosophila Kc167 cells
Knock-down reagent: long dsRNA against Drosophila genes, about 0.25 µg dsRNA per well
Duration: about 6 days: 3 days knock-down, then 3 days with or without MMS
Conditions: methyl methanesulphonate 0.004% (w/v) for 3 days after knock-down
Measurement: 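ATP-dependent luminescence as a measure of live cells in MMS-exposed wells, quantile normalised within each plate, with replicate values also given as a mean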
Direction: mean viability with MMS: higher = more surviving cells after MMS
The deposit covers about 23,000 reagents; shown is a random part of those that have a named target and a result. 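Values are quantile-normalised luminescence on an arbitrary scale; higher means more cells surviving MMS.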 Names joined by + are all predicted targets of the reagent. Not all columns of the deposit are shown.

target | DRSC id | mean viability with MMS
CG8569 (GeneID 36376) | DRSC07214 | 3.64e6
maf-S (GeneID 37336) | DRSC07348 | 3.30e6
mthl8 (GeneID 38013) | DRSC08211 | 3.66e6
mthl8 (GeneID 38013) | DRSC08311 | 3.61e6
Mco4 (GeneID 326221) | DRSC20061 | 3.61e6
Dek (GeneID 47906) | DRSC07418 | 3.38e6
SamDC (GeneID 34396) | DRSC03429 | 3.67e6
Hip1 (GeneID 39450) | DRSC09812 | 3.56e6
Atx-1 (GeneID 31624) | DRSC18365 | 3.68e6
TwdlB (GeneID 43202) | DRSC16050 | 3.51e6
Der-2 (GeneID 42005) | DRSC15021 | 3.28e6
CG14632 (retired record) (GeneID 31035) | DRSC17942 | 3.64e6
CanA1 (GeneID 43670) | DRSC16600 | 3.60e6
CG5455 (GeneID 43196) | DRSC15805 | 3.58e6
CG33223 (GeneID 2768867) | DRSC17572 | 3.49e6
CG12395 (GeneID 32571) | DRSC19453 | 3.54e6
CG15876 (GeneID 38573) | DRSC08484 | 3.61e6
nAChRalpha6 (GeneID 34304) | DRSC01096 | 3.55e6
nAChRalpha6 (GeneID 34304) | DRSC02738 | 3.74e6
Ilp3 (GeneID 39151) | DRSC10168 | 3.69e6
CG33325 (GeneID 2768664) | DRSC12699 | 3.49e6
CG4577 (GeneID 33291) | DRSC00658 | 3.72e6
CG17111 (GeneID 42727) | DRSC15174 | 3.58e6
RfC3 (GeneID 34423) | DRSC03411 | 3.50e6
CG9631 (GeneID 41729) | DRSC14137 | 3.68e6
CG9760 (GeneID 39388) | DRSC11101 | 3.50e6
Osi11 (GeneID 40765) | DRSC12282 | 3.44e6
CG12158 (GeneID 2768730) | DRSC22933 | 3.22e6
Ccs (GeneID 46035) | DRSC06692 | 3.63e6
CG46385 (GeneID 246653) | DRSC06425 | 2.94e6
CG46385 (GeneID 246653) | DRSC06557 | 3.42e6
CR18275 + CG13373 | DRSC17900 | 3.56e6
CG4465 (GeneID 42374) | DRSC15584 | 3.57e6
Roc1b + Cdc5 | DRSC08687 | 3.34e6
CG1951 (GeneID 43423) | DRSC15403 | 3.47e6
CG31910 + snoRNA:Me28S-G2743 (retired record) | DRSC00946 | 3.37e6
CG17377 (GeneID 33954) | DRSC00950 | 3.47e6
CG17377 (GeneID 33954) | DRSC02615 | 3.54e6
CG17377 (GeneID 33954) | DRSC21811 | 3.46e6
Mef2 (GeneID 36032) | DRSC07468 | 3.51e6
frm (GeneID 38624) | DRSC09753 | 3.53e6
CG3156 (GeneID 30994) | DRSC18503 | 3.46e6
CG34115 (GeneID 4379880) | DRSC03840 | 3.60e6
Ac13E (GeneID 32485) | DRSC19325 | 3.67e6
sti (GeneID 39429) | DRSC09739 | 3.50e6
sti (GeneID 39429) | DRSC09740 | 3.48e6

5 entries from above, arranged by “mean viability with MMS”, ascending:
target | DRSC id | mean viability with MMS
CG46385 (GeneID 246653) | DRSC06425 | 2.94e6
Roc1b + Cdc5 | DRSC08687 | 3.34e6
CG46385 (GeneID 246653) | DRSC06557 | 3.42e6
CR18275 + CG13373 | DRSC17900 | 3.56e6
CG4465 (GeneID 42374) | DRSC15584 | 3.57e6
